Source: US20110055942A1
No constants are given. Whether binding was seen depends on the method and setting. Some entries that bind do so weakly or less than the wild type.

Molecular target: T1, BMPR-2 receptor extra cellular domain (ECD) (UniProt Q13873)
T1 sequence (looked up): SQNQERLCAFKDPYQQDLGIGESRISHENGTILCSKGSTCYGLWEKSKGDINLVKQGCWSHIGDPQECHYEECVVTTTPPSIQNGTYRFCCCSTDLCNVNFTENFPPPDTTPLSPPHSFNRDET
Assay: radio-ligand competition with 125I-labeled TDF-1 on immobilized receptor

In the case of CYFDDSSNVLCKKYRS [SEQ ID NO:45], the binding is reported as “binds”.
